Article PMC6017422
Results are given in words; binding and its absence hold for the method and conditions named. Some binding calls cover weakened binding; strength is not graded here.

By UniProt entry, the sequences of proteins in these tests, tags left out. Residues count along the entry.
UniProt Q9FJL3, residues 2-578: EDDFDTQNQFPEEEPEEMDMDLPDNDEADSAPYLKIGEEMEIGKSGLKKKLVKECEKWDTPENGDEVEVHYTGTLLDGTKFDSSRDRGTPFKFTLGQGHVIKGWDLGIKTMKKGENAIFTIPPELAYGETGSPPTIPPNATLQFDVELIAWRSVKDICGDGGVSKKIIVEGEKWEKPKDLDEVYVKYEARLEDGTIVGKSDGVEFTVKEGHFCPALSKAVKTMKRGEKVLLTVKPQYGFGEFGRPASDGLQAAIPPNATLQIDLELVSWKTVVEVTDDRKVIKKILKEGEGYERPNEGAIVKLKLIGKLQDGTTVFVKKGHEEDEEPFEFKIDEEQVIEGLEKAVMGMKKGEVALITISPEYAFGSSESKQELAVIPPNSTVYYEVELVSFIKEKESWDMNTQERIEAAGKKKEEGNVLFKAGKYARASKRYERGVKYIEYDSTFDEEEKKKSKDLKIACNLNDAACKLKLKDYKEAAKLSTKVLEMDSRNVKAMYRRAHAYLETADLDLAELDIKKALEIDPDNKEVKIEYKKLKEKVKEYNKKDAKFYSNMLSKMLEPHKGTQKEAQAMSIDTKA

Target: ROF2 immunophilin (AtFKBP65/ROF2) (A. thaliana) (UniProt Q9FJL3)
Assay: two-hybrid; cotransformation of pGADT7 with the full-length partner and pGBKT7 with the immunophilin into yeast AH109; transformants selected on DDO (SD/Leu/Trp), interaction validated on QDO (Ade/His/Leu/Trp); cultures from OD600 = 0.2 diluted to 10^-3

binding | Binder
binds | Calcium-dependent lipid-binding domain-containing protein (At1g70790; AT1), full length (protein, UniProt Q9S7J9 1-185) MEDKPLGILRVHVKRGINLAIRDATTSDPYVVITLANQKLKTRVINNNCNPVWNEQLTLSIKDVNDPIRLTVFDKDRFSGDDKMGDAEIDFRPFLEAHQMELDFQKLPNGCAIKRIRPGRTNCLAEESSITWSNGKIMQEMILRLKNVECGEVELMLEWTDGPGCKGLGREGSKKTPWMPTKRLD
binds | Putative protein phosphatase (At2g30020; AT2), full length (protein, UniProt O80871 1-396) MSCSVAVCNSPVFSPSSSLFCNKSSILSSPQESLSLTLSHRKPQTSSPSSPSTTVSSPKSPFRLRFQKPPSGFAPGPLSFGSESVSASSPPGGVLKRKRPTRLDIPIGVAGFVAPISSSAAVAATPREECREVEREGDGYSVYCKRGRREAMEDRFSAITNLHGDRKQAIFGVYDGHGGVKAAEFAAKNLDKNIVEEVVGKRDESEIAEAVKHGYLATDASFLKEEDVKGGSCCVTALVNEGNLVVSNAGDCRAVMSVGGVAKALSSDHRPSRDDERKRIETTGGYVDTFHGVWRIQGSLAVSRGIGDAQLKKWVIAEPETKISRIEHDHEFLILASDGLWDKVSNQEAVDIARPLCLGTEKPLLLAACKKLVDLSASRGSSDDISVMLIPLRQFI
